One substance from publication PMC3520893 can be followed below.

Protein sequences, listed by entry. Tags and fused reporters are not part of them.
UniProt P0DMV8: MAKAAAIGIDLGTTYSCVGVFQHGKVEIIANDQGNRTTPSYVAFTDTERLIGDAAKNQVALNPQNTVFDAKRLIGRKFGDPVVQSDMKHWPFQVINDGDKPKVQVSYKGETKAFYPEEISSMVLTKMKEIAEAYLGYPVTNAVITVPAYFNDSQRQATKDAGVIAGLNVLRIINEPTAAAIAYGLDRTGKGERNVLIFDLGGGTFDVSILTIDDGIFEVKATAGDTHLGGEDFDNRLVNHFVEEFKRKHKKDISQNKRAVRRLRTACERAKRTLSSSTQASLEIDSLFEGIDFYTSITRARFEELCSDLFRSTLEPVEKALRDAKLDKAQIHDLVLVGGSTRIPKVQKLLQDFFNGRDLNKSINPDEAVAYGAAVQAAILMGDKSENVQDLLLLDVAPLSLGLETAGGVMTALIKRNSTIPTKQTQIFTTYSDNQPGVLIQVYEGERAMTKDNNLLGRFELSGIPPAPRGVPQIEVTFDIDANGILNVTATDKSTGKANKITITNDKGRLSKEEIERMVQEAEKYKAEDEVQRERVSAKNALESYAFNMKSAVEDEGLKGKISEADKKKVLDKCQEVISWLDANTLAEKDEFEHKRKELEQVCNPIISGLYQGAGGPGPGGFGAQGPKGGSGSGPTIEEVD
UniProt Q00987: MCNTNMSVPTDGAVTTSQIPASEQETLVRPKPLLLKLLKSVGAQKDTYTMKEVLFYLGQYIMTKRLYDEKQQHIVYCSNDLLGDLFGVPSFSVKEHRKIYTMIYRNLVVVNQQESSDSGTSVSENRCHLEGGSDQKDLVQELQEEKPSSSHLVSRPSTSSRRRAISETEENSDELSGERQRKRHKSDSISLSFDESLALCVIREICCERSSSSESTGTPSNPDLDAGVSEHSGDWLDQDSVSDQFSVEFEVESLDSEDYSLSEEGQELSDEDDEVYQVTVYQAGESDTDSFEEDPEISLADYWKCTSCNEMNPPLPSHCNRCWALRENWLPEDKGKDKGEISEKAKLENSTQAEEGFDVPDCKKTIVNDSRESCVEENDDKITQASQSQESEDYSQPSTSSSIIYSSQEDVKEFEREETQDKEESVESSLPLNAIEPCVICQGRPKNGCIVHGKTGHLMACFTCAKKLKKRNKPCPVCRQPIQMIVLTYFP

Results are given in words; binding and its absence hold for the method and conditions named.

The experiment concerns the target heat shock protein 70 (HSP70/HSPA1-A) (UniProt P0DMV8). Description: ELISA; about 400 ng of purified p53, chaperone or BSA coated on the plate (25 mM HEPES pH 7.4, 100 mM KCl, 25°C); increasing amounts of MDM2 added for 45 min in 25 mM HEPES pH 7.4, 100 mM KCl, 10 mM MgCl2, 2 mM DTT, 5% glycerol, 0.05% Triton X-100, 2 mg/ml BSA; MDM2 detected with H-221 or 4B2; both purified. In general terms: An ELISA detects its analyte on a solid surface through an enzyme-linked reagent.

“MDM2 (from UniProt Q00987 1-491) (enzyme)”: the binding result is on record as “no binding”.
